No constants are given. Whether binding was seen depends on the method and setting. Some results given as binding are weak or reduced against the parent protein; the word gives no strength.
Target: GST-LEDGF/p52 (UniProt O75475)
Test: AlphaScreen or HTRF

By UniProt entry, the sequences of proteins in these tests, tags left out. Where a name states a change or a piece, a line headed by the entry shows the natural chain unless it says otherwise. Chains listed by the source or under a name are the forms on record and can include a tag or linker.
UniProt O75475: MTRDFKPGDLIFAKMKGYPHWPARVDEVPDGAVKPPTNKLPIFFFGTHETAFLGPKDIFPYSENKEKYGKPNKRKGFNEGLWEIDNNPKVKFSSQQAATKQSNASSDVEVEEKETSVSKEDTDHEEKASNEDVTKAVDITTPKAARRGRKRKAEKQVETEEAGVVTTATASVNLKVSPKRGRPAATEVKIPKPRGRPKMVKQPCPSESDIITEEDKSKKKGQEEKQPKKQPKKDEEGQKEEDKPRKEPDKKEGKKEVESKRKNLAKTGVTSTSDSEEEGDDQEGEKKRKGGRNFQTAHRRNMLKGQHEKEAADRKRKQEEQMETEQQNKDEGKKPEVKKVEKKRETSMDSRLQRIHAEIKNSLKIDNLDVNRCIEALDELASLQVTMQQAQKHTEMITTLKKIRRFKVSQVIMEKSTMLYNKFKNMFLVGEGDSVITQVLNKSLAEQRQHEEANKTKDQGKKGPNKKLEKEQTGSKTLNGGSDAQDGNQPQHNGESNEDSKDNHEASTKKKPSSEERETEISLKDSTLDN
GST-LEDGF/p52 (O75475, form named): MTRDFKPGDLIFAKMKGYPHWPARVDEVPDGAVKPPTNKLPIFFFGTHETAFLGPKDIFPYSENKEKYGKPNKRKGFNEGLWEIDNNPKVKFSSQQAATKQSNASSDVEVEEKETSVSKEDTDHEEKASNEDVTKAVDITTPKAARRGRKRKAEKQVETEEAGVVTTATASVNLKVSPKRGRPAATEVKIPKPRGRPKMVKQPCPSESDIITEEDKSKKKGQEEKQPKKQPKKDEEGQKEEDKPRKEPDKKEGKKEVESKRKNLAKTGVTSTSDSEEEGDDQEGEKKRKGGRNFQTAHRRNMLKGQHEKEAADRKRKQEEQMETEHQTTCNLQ

Flag-LEDGF/p75 (from UniProt O75475 1-530)
binding: binds

Reference: article doi:10.1101/2024.04.24.590897
